Test [1] has as its target recombinant human IL-1α (human) (UniProt P01583). The test can be described thus: SPR (Biacore).
Test [2] addresses recombinant human IL-1β (human) (UniProt P01584). The test can be described thus: SPR (Biacore). (Surface plasmon resonance follows binding to a sensor surface in real time, without labels.)

The chains behind the UniProt entries cited, without tags or fusion partners. Residues count along the entry.
UniProt P01583, residues 113-271: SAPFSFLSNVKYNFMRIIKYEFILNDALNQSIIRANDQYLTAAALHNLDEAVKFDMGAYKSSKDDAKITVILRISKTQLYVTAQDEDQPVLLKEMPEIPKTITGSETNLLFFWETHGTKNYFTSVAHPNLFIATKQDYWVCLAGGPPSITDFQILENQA
UniProt P01584, residues 117-269: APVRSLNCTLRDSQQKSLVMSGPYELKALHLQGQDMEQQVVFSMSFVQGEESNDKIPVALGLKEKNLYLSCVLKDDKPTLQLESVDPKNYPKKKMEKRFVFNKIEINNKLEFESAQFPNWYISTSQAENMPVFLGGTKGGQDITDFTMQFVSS

For two molecules, binding results are on record in patent US20070071675A1.

No constants are given. Whether binding was seen depends on the method and setting. Some binding calls cover weakened binding; strength is not graded here.

B1: chimeric 3D12.E3 antibody (3D12.E3-VH-hCγ1 / 3D12.E3-VL-hCκ) (antibody, human IgG1, kappa, V domains shown)
VH: QIQLVQSGPELKKPGETVKISCKASGYTFRNYGMNWVKQAPGKDLKRMAWINTYTGESTYADDFKGRFAFSLETSASTAYLQINNLKNEDTATYFCARGIYYYGSSYAMDYWGQGTSVTVSS
VL: NIQMTQTTSSLSASLGDRVTISCRASQDISNCLNWYQQKPDGTVKLLIYYTSRLHSGVPSRFSGSGSGTDYSLTISNLEQEDIATYFCQQGKTLPYAFGGGTKLEINR
As for B1, the binding entry in test [1] was “binds”.

B2: chimeric 13F5.G5 antibody (13F5.G5-VH-Cγ1 / 13F5.G5-VL-Cκ) (antibody, human IgG1, kappa, V domains shown)
VH: QVQLQQSGAELVRPGSSVKISCKASGYAFSSYWMNWVKQRPGQGLEWIGQIYPGDGDTNYNGKFKGKATLTADKSSSTSYMQLSGLTSEDSAMYFCVRFPTGNDYYAMDYWGQGTSVTVSS
VL: NIVLTQSPASLAVSLGQRATISCRASESVDSYGNSYMHWYQQKPGQPPKLLIYLASNLESGVPARFSGSGSRTDFTLTIDPVEADDAATYYCQQNNEDPFTFGSGTKLEIKR
With B2, the binding entry in test [2] was “binds”.
